Test results published in the supplement of paper PMC10735217.
Where a name gives a salt, the structure may show the parent alone. Some of the results follow. Repeats in this data set agree poorly, so a single value says little.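 Human kidney-derived cells stably carry a construct in which eight TEAD-binding elements drive luciferase, measured by luminescence in a drug-repurposing library screen. A hit is any compound whose signal exceeds the plate mean by more than five robust Z scores.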

Tested on: HEK293A TEAD-LUC reporter
Experiment: TEAD-luciferase reporter activity (YAP activation), robust Z score vs plate; higher = stronger YAP/TEAD activation
Settings: 24 h

Row | Compound | TEAD-luciferase reporter activity (compound concentration: 200 nM) | TEAD-luciferase reporter activity (compound concentration: 2 uM) | TEAD-luciferase reporter activity (compound concentration: 10 uM)
1 | COc1ccc(CS(=O)c2ncccc2C(=O)Nc2cc(C)ncc2C)c(OC)c1 (centres undefined) | inactive: 0.494 | inactive: 0.264 | inactive: 0.224
2 | CN1CCC(OC(c2ccccc2)c2ccccc2)CC1 [4-Diphenylmethoxy-1-methylpiperidine hydrochloride] | inactive: -1.84 |  | inactive: 1.35
3 | CN1CCC(OC(c2ccccc2)c2ccccc2)CC1 [Diphenylpyraline hydrochloride] |  | inactive: 0.836 | 
4 | Cc1ccc(CN(C)C2CCc3ccccc32)cc1 (centres undefined) | inactive: 1.03 |  | inactive: 2.93
5 | CCCCC(=O)N(Cc1ccc(-c2ccccc2-c2nnn[nH]2)cc1)C(C(=O)O)C(C)C (centres undefined) [valsartan] | inactive: -3.32 | inactive: -1.32 | inactive: 1.12
6 | c1cnc(N2CCN(Cc3ccc4c(c3)OCO4)CC2)nc1 [piribedil] |  | inactive: -0.0931 | 
7 | c1cnc(N2CCN(Cc3ccc4c(c3)OCO4)CC2)nc1 [Piribedil] | inactive: -3.25 |  | inactive: -0.428
8 | O=C1N(c2ccccc2)c2ccccc2C1(Cc1ccncc1)Cc1ccncc1 [Linopirdine] |  | inactive: -1.25 | 
9 | O=C1N(c2ccccc2)c2ccccc2C1(Cc1ccncc1)Cc1ccncc1 | inactive: -0.771 |  | inactive: -0.505
10 | CN(C)CCCN1c2ccccc2Sc2ccccc21 | inactive: -0.189 |  | inactive: 1.77
11 | CN(C)CCCN1c2ccccc2Sc2ccccc21 [Promazine] |  | inactive: -2.05 | 
12 | CCCSc1nc(N[C@@H]2C[C@H]2c2ccc(F)c(F)c2)c2nnn([C@@H]3C[C@H](OCCO)[C@@H](O)[C@H]3O)c2n1 [Ticagrelor] | inactive: 0.251 | inactive: -1.39 | inactive: -0.604
13 | CC(C)(CO)NCc1ccc(OCCO)cc1 | inactive: 1.23 | inactive: 0.892 | inactive: -0.148
14 | CCN(C/C=C\c1ccc(C2CCCCC2)c(Cl)c1)C1CCCCC1 | inactive: -1.44 | inactive: -0.51 | inactive: -1.09
15 | CCCCCCCCCCCCCCOP(=O)([O-])O[C@H](CC(=O)O)C[N+](C)(C)C |  |  | inactive: 2.58
16 | CC(=O)N[C@H]1[C@H]([C@H](O)[C@H](O)CO)O[C@](O)(C(=O)O)C[C@@H]1O [aceneuramic acid] | inactive: -1.11 | active: 5.01 | inactive: -0.0594

Row | Compound | TEAD-luciferase reporter activity (compound concentration: 200 nM) | TEAD-luciferase reporter activity (compound concentration: 2 uM) | TEAD-luciferase reporter activity (compound concentration: 10 uM)
17 | CCCNc1nc(NC)nc2cc(-n3ccc(CCC(=O)NCCN4CCCCC4)c3)ccc12 | inactive: -1.34 | inactive: -0.581 | inactive: 1.21
18 | CCOC(=O)c1cnc(Nc2ccc(OC)cc2)[nH]c1=O | inactive: -1.93 | inactive: 1.65 | inactive: 3.37
19 | N=C1NCCC(C2NC(=O)/C(=C/NC(N)=O)NC(=O)C(CNC(=O)CC(N)CCCN)NC(=O)C(CO)NC(=O)C(N)CNC2=O)N1 (centres undefined) | active: 5.14 | inactive: -1.54 | inactive: 1.35
20 | CCN(CC)CCOC(=O)[C@H](Cc1ccc(NC(=O)c2c(Cl)cccc2Cl)cc1)NC(=O)c1c(C)cccc1Cl [Valategrast hydrochloride] |  | inactive: -1.12 | 
21 | CCN(CC)CCOC(=O)[C@H](Cc1ccc(NC(=O)c2c(Cl)cccc2Cl)cc1)NC(=O)c1c(C)cccc1Cl [valategrast hydrochloride] | inactive: -1.65 | inactive: -0.106 | inactive: 0.185
22 | COCC(=O)O[C@]1(CCN(C)CCCc2nc3ccccc3[nH]2)CCc2cc(F)ccc2[C@@H]1C(C)C [mibefradil dihydrochloride,Tau] |  | inactive: -0.875 | 
23 | COCC(=O)O[C@]1(CCN(C)CCCc2nc3ccccc3[nH]2)CCc2cc(F)ccc2[C@@H]1C(C)C [mibefradil dihydrochloride] | inactive: -0.257 | inactive: -0.353 | inactive: 0.474
24 | Cc1cc(C)nc(N2CC3CN(C(=O)c4c(F)cccc4-n4ccnn4)CC3C2)n1 (centres undefined) | inactive: -0.431 | inactive: 1.57 | inactive: 0.335
25 | OCCN1CCN(CCCN2c3ccccc3Sc3cc(Cl)cnc32)CC1 | inactive: -1.36 | inactive: -1.19 | inactive: 0.733
26 | C[C@@H]1C[C@H]2[C@@H]3CCC4=CC(=O)C=C[C@]4(C)[C@@]3(Cl)[C@@H](O)C[C@]2(C)[C@@]1(O)C(=O)CCl | inactive: 0.995 | inactive: 0.00246 | inactive: 4.31
27 | CCN(CC)CC(C)(C)COC(=O)c1ccc(N)cc1 | inactive: -0.593 | inactive: 0.0519 | inactive: -1.34
28 | CO[C@H]1/C=C\C=C(/C)C(=O)NC2=CC(=O)C(NCCN(C)C)=C(C[C@@H](C)C[C@H](OC)[C@H](O)[C@@H](C)/C=C(\C)[C@@H]1OC(N)=O)C2=O [Alvespimycin hydrochloride] | inactive: -3.05 | inactive: -0.51 | inactive: -1.67
29 | CCN1CCN(C(=O)C2CCN(Cc3cc4ccccc4[nH]3)CC2)CC1 | inactive: 2.47 | inactive: -0.606 | inactive: 0.677
30 | CO/N=C(\C(=O)N[C@@H]1C(=O)N2C(C(=O)O)=C(C)CS[C@H]12)c1csc(N)n1 [Cefetamet sodium] | inactive: -0.989 | inactive: -0.933 | inactive: -2.14
31 | CC[C@H](C)[C@H](NC(=O)[C@H](CO)NC(=O)[C@H](CCCCN)NC(=O)CNC(=O)[C@H](CCCCN)NC(=O)[C@H](CC(=O)O)NC(=O)[C@H](Cc1cnc[nH]1)NC(=O)[C@H](CC(C)C)NC(=O)[C@H](CC(C)C)NC(=O)[C@H](CCC(N)=O)NC(=O)[C@H](Cc1cnc[nH]1)NC(=O)[C@H](CCC(=O)O)NC(=O)[C@H](CO)NC(=O)[C@@H](NC(=O)[C@H](C)N)C(C)C)C(=O)N[C@@H](CCC(N)=O)C(=O)N[C@@H](CC(=O)O)C(=O)N[C@@H](CC(C)C)C(=O)N[C@@H](CCCNC(=N)N)C(=O)N[C@@H](CCCNC(=N)N)C(=O)N[C@@H](CCCNC(=N)N)C(=O)N[C@@H](CCC(=O)O)C(=O)N[C@@H](CC(C)C)C(=O)N[C@@H](CC(C)C)C(=O)N[C@@H](CCC(=O)O)C(=O)N[C@@H](CCCCN)C(=O)N[C@@H](CC(C)C)C(=O)N[C@@H](CC(C)C)C(=O)NC(C)(C)C(=O)N[C@@H](CCCCN)C(=O)N[C@@H](CC(C)C)C(=O)N[C@@H](Cc1cnc[nH]1)C(=O)N[C@H](C(=O)N[C@@H](C)C(N)=O)[C@@H](C)O [Abaloparatide] | inactive: -1.73 | inactive: 0.043 | active: 7

Quoted at random: 3 entries already listed, in no set order.
Row | Compound | TEAD-luciferase reporter activity (compound concentration: 200 nM) | TEAD-luciferase reporter activity (compound concentration: 2 uM) | TEAD-luciferase reporter activity (compound concentration: 10 uM)
28 | CO[C@H]1/C=C\C=C(/C)C(=O)NC2=CC(=O)C(NCCN(C)C)=C(C[C@@H](C)C[C@H](OC)[C@H](O)[C@@H](C)/C=C(\C)[C@@H]1OC(N)=O)C2=O [Alvespimycin hydrochloride] | inactive: -3.05 | inactive: -0.51 | inactive: -1.67
26 | C[C@@H]1C[C@H]2[C@@H]3CCC4=CC(=O)C=C[C@]4(C)[C@@]3(Cl)[C@@H](O)C[C@]2(C)[C@@]1(O)C(=O)CCl | inactive: 0.995 | inactive: 0.00246 | inactive: 4.31
22 | COCC(=O)O[C@]1(CCN(C)CCCc2nc3ccccc3[nH]2)CCc2cc(F)ccc2[C@@H]1C(C)C [mibefradil dihydrochloride,Tau] |  | inactive: -0.875 | 
